Like-named read-outs stand apart in the source and are kept apart here.
Legend:
RelA = RelA (Homo sapiens, UniProt Q04206); experiment: DSE-FRET RelA–DNA binding inhibition; assay type: biochemical
p52 = target: T1, p52 (Homo sapiens, UniProt Q00653); experiment: DSE-FRET p52–DNA binding inhibition; assay type: biochemical
T1 sequence (Q00653 1-454 limits assumed): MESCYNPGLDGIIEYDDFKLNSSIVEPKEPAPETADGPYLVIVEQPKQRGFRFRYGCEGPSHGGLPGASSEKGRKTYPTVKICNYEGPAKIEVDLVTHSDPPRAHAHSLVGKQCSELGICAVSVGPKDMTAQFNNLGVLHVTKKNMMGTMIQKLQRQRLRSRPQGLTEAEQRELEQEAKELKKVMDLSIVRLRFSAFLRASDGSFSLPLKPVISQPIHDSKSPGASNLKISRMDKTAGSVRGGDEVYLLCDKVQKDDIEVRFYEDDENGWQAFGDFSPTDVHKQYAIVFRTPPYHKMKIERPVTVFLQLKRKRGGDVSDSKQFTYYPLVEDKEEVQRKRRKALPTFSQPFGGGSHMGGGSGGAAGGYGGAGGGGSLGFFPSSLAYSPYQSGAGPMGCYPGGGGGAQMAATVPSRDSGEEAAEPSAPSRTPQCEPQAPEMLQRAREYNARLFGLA

By UniProt entry, the sequences of proteins in these tests, tags left out. Residues count along the entry.
UniProt Q04206, 19-306 limits assumed: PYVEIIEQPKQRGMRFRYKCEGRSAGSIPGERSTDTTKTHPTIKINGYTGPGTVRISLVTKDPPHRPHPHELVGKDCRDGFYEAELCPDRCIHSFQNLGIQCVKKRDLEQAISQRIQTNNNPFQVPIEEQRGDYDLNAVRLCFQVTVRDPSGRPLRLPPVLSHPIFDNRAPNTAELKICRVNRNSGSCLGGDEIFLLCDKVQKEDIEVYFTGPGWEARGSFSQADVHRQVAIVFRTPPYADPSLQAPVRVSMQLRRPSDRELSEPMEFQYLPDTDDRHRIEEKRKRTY

COc1ccc(-n2nc(C(F)(F)F)cc2-c2ccc(Cl)cc2)cc1 [SC 560]
inhibition at 10 µM (RelA; read-out: Kinetic assay @ 10 µM RelA % Inhibition ΔRFU(60 min-0 min)): -1.21% | inhibition at 10 µM (RelA; read-out: RelA HTS % Inhibition @ 10 µM): 43.7% | inhibition at 10 µM (RelA; read-out: RelA Retest % Inhibition @ 10 µM Avg.): -0.562% | inhibition at 10 µM (RelA; read-out: RelA Retest % Inhibition @ 10 µM Run1): -1.2% | inhibition at 10 µM (RelA; read-out: RelA Retest % Inhibition @ 10 µM Run2): 0.0409% | inhibition at 10 µM (p52; read-out: Kinetic assay @ 10 µM p52 % Inhibition ΔRFU(60 min-0 min)): -1.45% | inhibition at 10 µM (p52; read-out: p52 HTS % Inhibition @ 10 µM): -0.6% | inhibition at 10 µM (p52; read-out: p52 Retest % Inhibition @ 10 µM Avg.): 0.372% | inhibition at 10 µM (p52; read-out: p52 Retest % Inhibition @ 10 µM Run1): -0.437% | inhibition at 10 µM (p52; read-out: p52 Retest % Inhibition @ 10 µM Run2): 1.2%

Reference: article PMC7734590, “Identification of a Selective RelA Inhibitor Based on DSE-FRET Screening Methods” (International Journal of Molecular Sciences, 2020)
